In PMC11574364:
Construct, isoform or probe ends are uncertain for at least one entry. For some assays here: Where a protein sequence is shown, tags need not be part of it.

What was measured:
Experiment in all cases: human ORF protein microarray
CXorf26 (Homo sapiens) = biological target: T1, CXorf26 (Homo sapiens) (UniProt Q9BVG4); conditions: 5' phosphate; Domain array: 20 mM Tris-HCl pH 7.4, 200 mM KCl, 0.2 mM EDTA, 0.05% NP40, 2 ug/ul heparin, overnight 4 C. ORF array: PBS pH 7.0 with RNase inhibitor, 100 ng RNA, 1 h.; recombinant protein; protein details: N-terminal GST-6xHis; label: internal DY647 at G18; letters put together from the description
T1 sequence (looked up, limits assumed): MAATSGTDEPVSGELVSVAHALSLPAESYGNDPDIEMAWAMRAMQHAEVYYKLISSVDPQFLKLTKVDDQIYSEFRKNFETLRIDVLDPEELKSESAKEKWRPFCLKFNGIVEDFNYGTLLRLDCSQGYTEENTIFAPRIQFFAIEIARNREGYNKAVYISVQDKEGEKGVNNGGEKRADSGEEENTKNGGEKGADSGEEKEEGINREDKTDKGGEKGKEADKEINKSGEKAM

TRAPPC2L (Homo sapiens) = TRAPPC2L (Homo sapiens) (UniProt Q9UL33); conditions: 5' phosphate; Domain array: 20 mM Tris-HCl pH 7.4, 200 mM KCl, 0.2 mM EDTA, 0.05% NP40, 2 ug/ul heparin, overnight 4 C. ORF array: PBS pH 7.0 with RNase inhibitor, 100 ng RNA, 1 h.; recombinant protein; protein details: N-terminal GST-6xHis; label: internal DY647 at G18; letters put together from the description
TIMP3 (Homo sapiens) = biological target: T2, TIMP3 (Homo sapiens) (UniProt P35625); conditions: 5' phosphate; Domain array: 20 mM Tris-HCl pH 7.4, 200 mM KCl, 0.2 mM EDTA, 0.05% NP40, 2 ug/ul heparin, overnight 4 C. ORF array: PBS pH 7.0 with RNase inhibitor, 100 ng RNA, 1 h.; recombinant protein; protein details: N-terminal GST-6xHis; label: internal DY647 at G18; letters put together from the description
T2 sequence (looked up, limits assumed): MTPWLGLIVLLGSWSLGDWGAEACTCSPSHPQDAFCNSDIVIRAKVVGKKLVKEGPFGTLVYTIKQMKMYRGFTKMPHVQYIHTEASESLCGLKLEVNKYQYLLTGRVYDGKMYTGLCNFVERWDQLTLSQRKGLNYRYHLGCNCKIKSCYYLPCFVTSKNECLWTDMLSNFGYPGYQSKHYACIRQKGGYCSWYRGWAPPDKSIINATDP

BUB3 (Homo sapiens) = BUB3 (Homo sapiens) (UniProt O43684); conditions: 5' phosphate; amino-C6 U at position 18; Domain array: 20 mM Tris-HCl pH 7.4, 200 mM KCl, 0.2 mM EDTA, 0.05% NP40, 2 ug/ul heparin, overnight 4 C. ORF array: PBS pH 7.0 with RNase inhibitor, 100 ng RNA, 1 h.; recombinant protein; protein details: N-terminal GST-6xHis; label: internal Cy5 or DY647
MAPRE1 (Homo sapiens) = MAPRE1 (Homo sapiens) (UniProt Q15691); conditions: 5' phosphate; amino-C6 U at position 18; Domain array: 20 mM Tris-HCl pH 7.4, 200 mM KCl, 0.2 mM EDTA, 0.05% NP40, 2 ug/ul heparin, overnight 4 C. ORF array: PBS pH 7.0 with RNase inhibitor, 100 ng RNA, 1 h.; recombinant protein; protein details: N-terminal GST-6xHis; label: internal Cy5 or DY647
COL5A2 (Homo sapiens) = COL5A2 (Homo sapiens) (UniProt P05997); conditions: 5' phosphate; amino-C6 U at position 18; Domain array: 20 mM Tris-HCl pH 7.4, 200 mM KCl, 0.2 mM EDTA, 0.05% NP40, 2 ug/ul heparin, overnight 4 C. ORF array: PBS pH 7.0 with RNase inhibitor, 100 ng RNA, 1 h.; recombinant protein; protein details: N-terminal GST-6xHis; label: internal Cy5 or DY647
ABCG1 (Homo sapiens) = ABCG1 (Homo sapiens) (UniProt P45844); conditions: 5' phosphate; amino-C6 U at position 18; Domain array: 20 mM Tris-HCl pH 7.4, 200 mM KCl, 0.2 mM EDTA, 0.05% NP40, 2 ug/ul heparin, overnight 4 C. ORF array: PBS pH 7.0 with RNase inhibitor, 100 ng RNA, 1 h.; recombinant protein; protein details: N-terminal GST-6xHis; label: internal Cy5 or DY647
PAEP (Homo sapiens) = biological target: T3, PAEP (Homo sapiens) (UniProt P09466); conditions: 5' phosphate; amino-C6 U at position 18; Domain array: 20 mM Tris-HCl pH 7.4, 200 mM KCl, 0.2 mM EDTA, 0.05% NP40, 2 ug/ul heparin, overnight 4 C. ORF array: PBS pH 7.0 with RNase inhibitor, 100 ng RNA, 1 h.; recombinant protein; protein details: N-terminal GST-6xHis; label: internal Cy5 or DY647
T3 sequence (looked up, limits assumed): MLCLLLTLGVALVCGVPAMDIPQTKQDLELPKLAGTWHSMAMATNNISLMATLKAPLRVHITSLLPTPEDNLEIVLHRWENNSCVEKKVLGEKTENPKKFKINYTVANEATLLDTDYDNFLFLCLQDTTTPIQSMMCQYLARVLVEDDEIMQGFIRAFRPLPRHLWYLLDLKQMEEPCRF

Sequence: CAGUGCAAUGAUGAAAGGGCAU [miR-130b (internal labeling)]
- binding result (CXorf26 (Homo sapiens)): binds
- binding result (TRAPPC2L (Homo sapiens)): binds

Sequence: UAGCUUAUCAGACUGAUGUUGA [miR-21 (internal labeling)]
- binding result (TIMP3 (Homo sapiens)): binds

Sequence: UGAGGUAGUAGGUUGUGUGGUU [let-7b (internal labeling)]
- binding result (BUB3 (Homo sapiens)): binds
- binding result (MAPRE1 (Homo sapiens)): binds
- binding result (COL5A2 (Homo sapiens)): binds
- binding result (ABCG1 (Homo sapiens)): binds
- binding result (PAEP (Homo sapiens)): binds
